PubChem BioAssay AID1224828 – NIAID | 2016

Test: 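Find genes required for NF-kappaB p65 moving into the nucleus after LPS in mouse macrophages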 (primary screen)
Cell system: mouse RAW264.7 G9 macrophage reporter cells (GFP-p65, Tnf promoter-mCherry)
Reagent: siRNA pool against mouse genes, 100 nM
Time to read-out: 2 days siRNA transfection, then 40 min LPS before fixation
Challenge: LPS (Salmonella minnesota R595) at 10 ng/ml
Measurement: 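Microscopy ratio of nuclear to perinuclear-ring GFP-p65 signal, scaled to the plate median; gene score is the average of two replicate robust z-scores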
Reading the numbers: p65 translocation robust z-score: higher = more nuclear NF-kappaB p65 after LPS than the plate median; nuclear/cytoplasmic p65 ratio: higher = more nuclear NF-kappaB p65
Rule for the call: 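Called active when z exceeds 3.3 or falls under -1.56 (median of Tlr4 controls), giving activity score of at least 50; no calls for control wells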
Calls: active = hit (p65 shift raised or lowered); inactive = no clear change
The deposit covers about 17,000 reagents; below is an unselected part. 762 of them (4.5%) were called active. 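Active calls include both raised and lowered p65 entry, mostly lowered; wells with fewer than 50 cells lack a z-score.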 Raw values are not corrected between plates. Reagent sequences are not shown.

Dsg1b
- nuclear/cytoplasmic p65 ratio, rep 1: 1.25
- nuclear/cytoplasmic p65 ratio, rep 2: 1.26
- low cell count flag: fewer than 50 cells per well; well left out of scoring
- Call: inactive

Mthfsd
- p65 translocation robust z-score: -2.11
- nuclear/cytoplasmic p65 ratio, rep 1: 1.16
- nuclear/cytoplasmic p65 ratio, rep 2: 1.21
- low cell count flag: enough cells to score
- Call: active

Ssrp1
- p65 translocation robust z-score: 0.1
- nuclear/cytoplasmic p65 ratio, rep 1: 1.55
- nuclear/cytoplasmic p65 ratio, rep 2: 1.58
- low cell count flag: enough cells to score
- Call: inactive

Or10g1b
- p65 translocation robust z-score: 2.1
- nuclear/cytoplasmic p65 ratio, rep 1: 1.96
- nuclear/cytoplasmic p65 ratio, rep 2: 1.67
- low cell count flag: enough cells to score
- Call: inactive

Nrg3
- p65 translocation robust z-score: -0.6
- nuclear/cytoplasmic p65 ratio, rep 1: 1.56
- nuclear/cytoplasmic p65 ratio, rep 2: 1.32
- low cell count flag: enough cells to score
- Call: inactive

Clip1
- p65 translocation robust z-score: -1.19
- nuclear/cytoplasmic p65 ratio, rep 1: 1.36
- nuclear/cytoplasmic p65 ratio, rep 2: 1.35
- low cell count flag: enough cells to score
- Call: inactive

Pramel3c
- nuclear/cytoplasmic p65 ratio, rep 1: 1.11
- nuclear/cytoplasmic p65 ratio, rep 2: 1.22
- low cell count flag: fewer than 50 cells per well; well left out of scoring
- Call: inactive

Mrps15
- p65 translocation robust z-score: 0.31
- nuclear/cytoplasmic p65 ratio, rep 1: 1.91
- nuclear/cytoplasmic p65 ratio, rep 2: 1.57
- low cell count flag: enough cells to score
- Call: inactive

Pwwp3a
- p65 translocation robust z-score: -0.59
- nuclear/cytoplasmic p65 ratio, rep 1: 1.33
- nuclear/cytoplasmic p65 ratio, rep 2: 1.48
- low cell count flag: enough cells to score
- Call: inactive

Uchl1
- p65 translocation robust z-score: 1.3
- nuclear/cytoplasmic p65 ratio, rep 1: 1.68
- nuclear/cytoplasmic p65 ratio, rep 2: 1.7
- low cell count flag: enough cells to score
- Call: inactive

Mtmr12
- p65 translocation robust z-score: 0.11
- nuclear/cytoplasmic p65 ratio, rep 1: 1.55
- nuclear/cytoplasmic p65 ratio, rep 2: 1.39
- low cell count flag: enough cells to score
- Call: inactive

Pfkp
- p65 translocation robust z-score: -0.94
- nuclear/cytoplasmic p65 ratio, rep 1: 1.58
- nuclear/cytoplasmic p65 ratio, rep 2: 1.23
- low cell count flag: enough cells to score
- Call: inactive

Fam110c
- p65 translocation robust z-score: 0.42
- nuclear/cytoplasmic p65 ratio, rep 1: 1.54
- nuclear/cytoplasmic p65 ratio, rep 2: 1.6
- low cell count flag: enough cells to score
- Call: inactive

Elmod1
- p65 translocation robust z-score: 0.11
- nuclear/cytoplasmic p65 ratio, rep 1: 1.32
- nuclear/cytoplasmic p65 ratio, rep 2: 1.25
- low cell count flag: enough cells to score
- Call: inactive

Or5ak23
- p65 translocation robust z-score: -0.79
- nuclear/cytoplasmic p65 ratio, rep 1: 1.29
- nuclear/cytoplasmic p65 ratio, rep 2: 1.19
- low cell count flag: enough cells to score
- Call: inactive

Or55b10
- nuclear/cytoplasmic p65 ratio, rep 1: 1.32
- nuclear/cytoplasmic p65 ratio, rep 2: 0
- low cell count flag: fewer than 50 cells per well; well left out of scoring
- Call: inactive

Twf1
- p65 translocation robust z-score: 0.05
- nuclear/cytoplasmic p65 ratio, rep 1: 1.77
- nuclear/cytoplasmic p65 ratio, rep 2: 1.32
- low cell count flag: enough cells to score
- Call: inactive

Gnmt
- p65 translocation robust z-score: 0.11
- nuclear/cytoplasmic p65 ratio, rep 1: 1.43
- nuclear/cytoplasmic p65 ratio, rep 2: 1.41
- low cell count flag: enough cells to score
- Call: inactive

Next part, starting with the last 3 of the part before.
Or55b10
- nuclear/cytoplasmic p65 ratio, rep 1: 1.32
- nuclear/cytoplasmic p65 ratio, rep 2: 0
- low cell count flag: fewer than 50 cells per well; well left out of scoring
- Call: inactive

Twf1
- p65 translocation robust z-score: 0.05
- nuclear/cytoplasmic p65 ratio, rep 1: 1.77
- nuclear/cytoplasmic p65 ratio, rep 2: 1.32
- low cell count flag: enough cells to score
- Call: inactive

Gnmt
- p65 translocation robust z-score: 0.11
- nuclear/cytoplasmic p65 ratio, rep 1: 1.43
- nuclear/cytoplasmic p65 ratio, rep 2: 1.41
- low cell count flag: enough cells to score
- Call: inactive

Ctsl
- p65 translocation robust z-score: 0.97
- nuclear/cytoplasmic p65 ratio, rep 1: 1.68
- nuclear/cytoplasmic p65 ratio, rep 2: 1.44
- low cell count flag: enough cells to score
- Call: inactive

Lypd4
- p65 translocation robust z-score: -1.76
- nuclear/cytoplasmic p65 ratio, rep 1: 1.1
- nuclear/cytoplasmic p65 ratio, rep 2: 1.05
- low cell count flag: enough cells to score
- Call: active

Izumo4
- nuclear/cytoplasmic p65 ratio, rep 1: 0
- nuclear/cytoplasmic p65 ratio, rep 2: 1.73
- low cell count flag: fewer than 50 cells per well; well left out of scoring
- Call: inactive

Or4k15
- p65 translocation robust z-score: 0.46
- nuclear/cytoplasmic p65 ratio, rep 1: 1.59
- nuclear/cytoplasmic p65 ratio, rep 2: 1.32
- low cell count flag: enough cells to score
- Call: inactive

Insr
- p65 translocation robust z-score: -0.62
- nuclear/cytoplasmic p65 ratio, rep 1: 1.61
- nuclear/cytoplasmic p65 ratio, rep 2: 1.28
- low cell count flag: enough cells to score
- Call: inactive

Vmn1r181
- p65 translocation robust z-score: -0.89
- nuclear/cytoplasmic p65 ratio, rep 1: 1.25
- nuclear/cytoplasmic p65 ratio, rep 2: 1.15
- low cell count flag: enough cells to score
- Call: inactive

Nipal4
- p65 translocation robust z-score: -0.11
- nuclear/cytoplasmic p65 ratio, rep 1: 1.4
- nuclear/cytoplasmic p65 ratio, rep 2: 1.54
- low cell count flag: enough cells to score
- Call: inactive

Cstad
- p65 translocation robust z-score: -0.82
- nuclear/cytoplasmic p65 ratio, rep 1: 1.49
- nuclear/cytoplasmic p65 ratio, rep 2: 1.43
- low cell count flag: enough cells to score
- Call: inactive

Dvl1
- p65 translocation robust z-score: -0.14
- nuclear/cytoplasmic p65 ratio, rep 1: 1.48
- nuclear/cytoplasmic p65 ratio, rep 2: 1.34
- low cell count flag: enough cells to score
- Call: inactive
